{"source": "the supplement of paper PMC8047044", "note": "Some of the results follow. Repeats are few or missing, and single values can be far off.", "data": [{"system": "Neuro-2a", "test": "neurite formation score, plate-normalized to DMSO control mean 5.04 (score (0-8 scale)); higher = more or longer neurites", "conditions": "10 µM", "values": [{"smiles": "NC(=O)c1ncn([C@@H]2O[C@H](CO)[C@@H](O)[C@H]2O)c1N", "neurite formation score": 4.19}, {"smiles": "O=C(Nc1ccc2[nH]nc(-c3ccncc3)c2c1)[C@@H]1CCN(CC(=O)N2CCN(c3ccc(-c4ncccn4)cc3)CC2)C1", "neurite formation score": 4.42}, {"smiles": "COc1ccc(CNc2nc(N(CCO)CCO)nc3c2ncn3C(C)C)cc1", "neurite formation score": 4.88}, {"smiles": "CN(C)c1nc2c(Br)c(Br)c(Br)c(Br)c2[nH]1", "neurite formation score": 5.41}, {"smiles": "COc1cc2ncnc(Nc3ccc(F)c(Cl)c3)c2cc1NC(=O)/C=C/CN1CCCCC1", "neurite formation score": 2.52}, {"smiles": "CCCNC(=O)Nc1ccc(Oc2ncnc3cc(OC)c(OC)cc23)cc1Cl", "neurite formation score": 4.85}, {"smiles": "CC(C)Oc1ccc(-c2cnc3c(-c4ccnc5ccccc45)cnn3c2)cc1", "neurite formation score": 4.52}, {"smiles": "CCn1cc(-c2ccnc3[nH]c(-c4cccc(CN(C)C)c4)cc23)c(-c2ccc(NC(=O)N(C)C)cc2)n1", "neurite formation score": 3.74}, {"smiles": "Nc1ncnc2n[nH]c(Nc3ccc(F)cc3)c12", "neurite formation score": 5.19}, {"smiles": "Cn1cnc2c(F)c(Nc3ccc(Br)cc3F)c(C(=O)NOCCO)cc21", "neurite formation score": 5.21}, {"smiles": "Cc1cc(NC(=O)c2cccc(NC(=O)/C=C/CN(C)C)c2)ccc1Nc1nccc(-c2cccnc2)n1", "neurite formation score": 3.41}, {"smiles": "Cc1cc(CS(=O)(=O)c2ccccc2)cc(OCc2ccc(CN3CCC[C@@H]3CO)cc2)c1", "neurite formation score": 4.74}, {"smiles": "CC(C)[C@H](CO)Nc1nc(Nc2ccc(C(=O)O)c(Cl)c2)c2ncn(C(C)C)c2n1", "note": "[Purvalanol B]", "neurite formation score": 4.76}, {"smiles": "Cc1nc(NC(=O)N2CCC[C@H]2C(N)=O)sc1-c1ccnc(C(C)(C)C(F)(F)F)c1", "neurite formation score": 4.52}, {"smiles": "CN1CCC(CNc2ccc3ncc(-c4cccc(OC(F)(F)F)c4)n3n2)CC1", "note": "[SGI-1776 free base]", "neurite formation score": -0.256}, {"smiles": "Oc1ccc2ccccc2c1SSc1c(O)ccc2ccccc12", "neurite formation score": 4.86}, {"smiles": "Cc1[nH]nc2ccc(-c3cncc(OC[C@@H](N)Cc4ccccc4)c3)cc12", "neurite formation score": 3.76}, {"smiles": "COc1cc2c(Oc3ccc4[nH]c(C)cc4c3F)ncnc2cc1OCCCN1CCCC1", "note": "[Cediranib (AZD217)]", "neurite formation score": 2.88}, {"smiles": "O=c1cc(N2CCOCC2)oc2c1ccc1ccccc12", "neurite formation score": 3.42}, {"smiles": "CN1CCN(S(=O)(=O)c2ccc(-c3cnc(N)c(C(=O)Nc4cccnc4)n3)cc2)CC1", "neurite formation score": 4.19}, {"smiles": "O=C(NC(NC(=S)Nc1ccc(F)c([N+](=O)[O-])c1)C(Cl)(Cl)Cl)C(c1ccccc1)c1ccccc1", "note": "(stereo unspecified)", "neurite formation score": 4.76}, {"smiles": "Cc1nc(NC(=O)N2CCC[C@H]2C(N)=O)sc1-c1csc(C(C)(C)C)n1", "neurite formation score": 4.19}, {"smiles": "COCCOc1ccc2c(c1)ncn2-c1ccc2cccc(N3CCC(N)CC3)c2n1", "neurite formation score": 5.86}, {"smiles": "COc1c(C)c(C(=O)c2ccc(N)c(C(=O)O)c2)n2ccccc12", "neurite formation score": 4.43}, {"smiles": "O=c1ncn2nc(Sc3ccc(F)cc3F)ccc2c1-c1c(Cl)cccc1Cl", "neurite formation score": 4.43}, {"smiles": "O=C(c1ccc(Nc2nccc(-c3cc4ccccc4s3)n2)cc1)N1CCC(N2CCCC2)CC1", "note": "[IKK-16 (IKK Inhibitor VII)]", "neurite formation score": 0.855}]}]}
